Among the data in article PMC4980427, “Ctf4 Links DNA Replication with Sister Chromatid Cohesion Establishment by Recruiting the Chl1 Helicase to the Replisome” (Molecular Cell, 2016) are binding values, retold here.

No constants are given. Whether binding was seen depends on the method and setting. In cells and extracts the contact can be indirect. Some results given as binding are weak or reduced against the parent protein; the word gives no strength. For part of these data: Where a sequence is shown, tags or fusion partners need not be part of it.

The target of assay [1] is T1, Ctf4 (S. cerevisiae (endogenous in budding yeast cells)), Q01454.
T1 chain: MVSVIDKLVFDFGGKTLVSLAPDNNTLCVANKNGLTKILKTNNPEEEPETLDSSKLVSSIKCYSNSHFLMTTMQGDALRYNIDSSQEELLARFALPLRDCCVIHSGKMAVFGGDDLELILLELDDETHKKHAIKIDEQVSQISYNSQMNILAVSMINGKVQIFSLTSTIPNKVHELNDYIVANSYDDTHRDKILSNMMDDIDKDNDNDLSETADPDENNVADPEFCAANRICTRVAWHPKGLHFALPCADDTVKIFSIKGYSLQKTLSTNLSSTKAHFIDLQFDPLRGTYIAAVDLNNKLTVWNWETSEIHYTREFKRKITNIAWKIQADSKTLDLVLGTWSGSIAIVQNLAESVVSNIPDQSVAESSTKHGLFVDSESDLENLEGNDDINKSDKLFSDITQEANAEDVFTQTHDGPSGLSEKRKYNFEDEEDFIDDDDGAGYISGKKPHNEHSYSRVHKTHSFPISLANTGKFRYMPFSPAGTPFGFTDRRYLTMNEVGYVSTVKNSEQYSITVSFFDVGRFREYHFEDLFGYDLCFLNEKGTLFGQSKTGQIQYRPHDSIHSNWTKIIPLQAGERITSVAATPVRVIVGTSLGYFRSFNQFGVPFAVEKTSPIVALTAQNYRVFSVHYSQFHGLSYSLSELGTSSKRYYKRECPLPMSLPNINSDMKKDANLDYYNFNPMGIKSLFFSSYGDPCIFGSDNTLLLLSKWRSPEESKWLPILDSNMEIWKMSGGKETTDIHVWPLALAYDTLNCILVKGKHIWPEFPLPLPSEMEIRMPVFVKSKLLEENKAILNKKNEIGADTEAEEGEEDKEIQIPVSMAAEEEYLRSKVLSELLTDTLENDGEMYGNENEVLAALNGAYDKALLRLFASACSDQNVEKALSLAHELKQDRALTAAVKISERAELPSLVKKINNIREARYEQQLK
The experiment in a line: co-IP; extracts at intervals from a culture progressing synchronously through the cell cycle; Ctf4 immunoprecipitated; Psf2, Pol1 and Chl1 detected by immunoblotting. As to conditions: remark: other sources report otherwise.

Assay [2] has as its target T2, Ctf4 (S. cerevisiae (endogenous in budding yeast cells)) (UniProt Q01454).
T2 sequence: T1 chain
In words: condition: only cells after most DNA replication was complete; co-IP; as a4, time points after most DNA replication was complete.

Assay [3] concerns the target T2, Ctf4 (S. cerevisiae (endogenous in budding yeast cells)). The experiment in a line: co-IP; as a1, time points before and after S phase.

B1: Chl1, P22516 1-861 (enzyme)
chain: MDKKEYSETFYHPYKPYDIQVQLMETVYRVLSEGKKIAILESPTGTGKTLSLICATMTWLRMNKADIFTRMETNIKTNEDDSENLSDDEPDWVIDTYRKSVLQEKVDLLNDYEKHLNEINTTSCKQLKTMCDLDKEHGRYKSVDPLRKKRKGARHLDVSLEEQDFIPRPYESDSENNDTSKSTRGGRISDKDYKLSELNSQIITLLDKIDGKVSRDPNNGDRFDVTNQNPVKIYYASRTYSQLGQFTSQLRLPSFPSSFRDKVPDEKVKYLPLASKKQLCINPKVMKWKTLEAINDACADLRHSKEGCIFYQNTNEWRHCPDTLALRDMIFSEIQDIEDLVPLGKSLGICPYYASREALPIAEVVTLPYQYLLSESTRSSLQINLENSIVIIDEAHNLIETINSIYSSQISLEDLKNCHKGIVTYFNKFKSRLNPGNRVNLLKLNSLLMTLIQFIVKNFKKIGQEIDPNDMFTGSNIDTLNIHKLLRYIKVSKIAYKIDTYNQALKEEESSKNENPIKETHKKSVSSQPLLFKVSQFLYCLTNLTSEGQFFFEKNYSIKYMLLEPSKPFESILNQAKCVVLAGGTMEPMSEFLSNLLPEVPSEDITTLSCNHVIPKENLQTYITNQPELEFTFEKRMSPSLVNNHLFQFFVDLSKAVPKKGGIVAFFPSYQYLAHVIQCWKQNDRFATLNNVRKIFYEAKDGDDILSGYSDSVAEGRGSLLLAIVGGKLSEGINFQDDLCRAVVMVGLPFPNIFSGELIVKRKHLAAKIMKSGGTEEEASRATKEFMENICMKAVNQSVGRAIRHANDYANIYLLDVRYNRPNFRKKLSRWVQDSINSEHTTHQVISSTRKFFSMRSLNSR
As for B1, in assay [1], the binding entry is recorded as “binds”.

B2: Chl1 (enzyme, UniProt P22516 1-861)
chain: B1 chain
With B2, the binding entry in assay [2] was “no binding”.

B3: Pk epitope-tagged Chl1 (enzyme, UniProt P22516 1-861)
chain: B1 chain
For the molecule B3, the binding entry in assay [3] was “no binding (condition: cells before or after S phase)”.
